Reference: PMC5297747

Amino acid sequences for entries named in this document (tags omitted). A change or cut given only in a name is not applied to a line headed by its entry. Residues count along the entry.
UniProt B1YBJ2: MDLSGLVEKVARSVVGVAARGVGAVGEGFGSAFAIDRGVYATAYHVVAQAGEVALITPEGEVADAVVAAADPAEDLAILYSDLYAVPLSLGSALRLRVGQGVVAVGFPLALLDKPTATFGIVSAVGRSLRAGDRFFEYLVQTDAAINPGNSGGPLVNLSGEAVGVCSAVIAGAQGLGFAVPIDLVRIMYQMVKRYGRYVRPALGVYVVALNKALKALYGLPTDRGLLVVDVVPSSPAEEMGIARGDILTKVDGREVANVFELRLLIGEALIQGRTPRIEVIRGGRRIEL
UniProt P00772, residues 27-266: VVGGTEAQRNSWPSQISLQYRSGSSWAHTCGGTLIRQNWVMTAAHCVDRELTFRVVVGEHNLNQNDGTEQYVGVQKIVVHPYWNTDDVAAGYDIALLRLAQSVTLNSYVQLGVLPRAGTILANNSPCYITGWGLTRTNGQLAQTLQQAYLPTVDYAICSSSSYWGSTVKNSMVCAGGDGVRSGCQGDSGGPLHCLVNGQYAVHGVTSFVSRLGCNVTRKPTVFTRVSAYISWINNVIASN
UniProt P06873, residues 106-384: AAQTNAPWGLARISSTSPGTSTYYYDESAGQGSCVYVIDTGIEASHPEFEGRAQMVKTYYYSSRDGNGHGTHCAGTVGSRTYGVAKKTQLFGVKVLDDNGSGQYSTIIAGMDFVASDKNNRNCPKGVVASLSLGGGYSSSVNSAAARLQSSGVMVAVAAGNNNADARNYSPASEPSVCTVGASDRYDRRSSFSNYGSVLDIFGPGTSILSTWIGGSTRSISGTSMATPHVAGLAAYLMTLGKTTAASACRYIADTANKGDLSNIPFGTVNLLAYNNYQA
UniProt B1YBN4: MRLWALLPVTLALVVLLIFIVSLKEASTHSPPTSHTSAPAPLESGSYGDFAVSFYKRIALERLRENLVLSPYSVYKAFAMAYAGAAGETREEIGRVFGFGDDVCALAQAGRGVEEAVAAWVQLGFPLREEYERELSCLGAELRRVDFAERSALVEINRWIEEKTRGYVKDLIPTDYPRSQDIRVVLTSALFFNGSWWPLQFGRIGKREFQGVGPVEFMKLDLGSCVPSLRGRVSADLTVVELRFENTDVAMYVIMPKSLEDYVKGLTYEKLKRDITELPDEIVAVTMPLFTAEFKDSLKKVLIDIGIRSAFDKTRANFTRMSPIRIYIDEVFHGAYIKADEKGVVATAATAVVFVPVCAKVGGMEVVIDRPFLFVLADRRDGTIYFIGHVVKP

What was measured:
Assay in all cases: SDS-PAGE of SDS-resistant covalent complex; Pnserpin incubated with protease in buffer B at molar ratios 0.5 to 4 at 50 °C (80 °C for PnCHT) for 2 min; stopped with reducing SDS-PAGE buffer and boiling for 10 min; 10% gel, Coomassie staining; both purified
[1] = target: PnCHT, chymotrypsin-like serine protease of Pyrobaculum neutrophilum (Pyrobaculum neutrophilum) (UniProt B1YBJ2)
[2] = target: porcine pancreatic elastase (porcine) (UniProt P00772)
proteinase k = proteinase k (UniProt P06873)
subtilisin Carlsberg = target: T1, subtilisin Carlsberg (UniProt P00780)
T1 sequence: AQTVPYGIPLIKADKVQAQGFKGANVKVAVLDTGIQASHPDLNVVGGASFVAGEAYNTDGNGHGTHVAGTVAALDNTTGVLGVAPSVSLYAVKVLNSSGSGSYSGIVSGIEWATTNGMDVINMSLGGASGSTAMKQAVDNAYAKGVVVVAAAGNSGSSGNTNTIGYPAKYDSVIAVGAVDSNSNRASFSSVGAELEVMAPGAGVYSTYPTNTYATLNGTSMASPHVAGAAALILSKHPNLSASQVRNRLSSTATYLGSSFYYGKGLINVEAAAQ

Measured: binding

Pnserpin (from UniProt B1YBN4)
binds: all assays above

Results are given in words; binding and its absence hold for the method and conditions named. A result given as binding can be weak or reduced; the word gives no strength.
